Measurements reported in PMC12035558, “Structure of the Saccharolobus solfataricus GINS tetramer” (Acta Crystallographica Section F: Structural Biology …, 2025).
No constants are given. Whether binding was seen depends on the method and setting. Some binding calls cover weakened binding; strength is not graded here.

Biological target: T1, Saccharolobus solfataricus GINS23 (Saccharolobus solfataricus)
T1 sequence: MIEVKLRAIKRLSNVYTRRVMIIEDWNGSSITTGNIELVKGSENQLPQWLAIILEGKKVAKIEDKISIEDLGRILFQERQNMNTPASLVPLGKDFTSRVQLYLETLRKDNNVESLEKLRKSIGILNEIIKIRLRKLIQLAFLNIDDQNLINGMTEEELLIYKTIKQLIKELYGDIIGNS
Assay: crystal structure; co-expressed and co-purified SsoGINS tetramer, 11 mg/ml in 20 mM Tris pH 8.3, 100 mM NaCl; hanging drop, 0.18 M triammonium citrate, 20%(w/v) PEG 3350, 291 K; space group P6_(3), 2.3 Å; both purified

B1: Saccharolobus solfataricus GINS51 (natural protein)
chain: MLDELVKKELSEEEITEIKLEEIIKYITLIKKSKTFVSSEIRKEELKFLSELAESLFELRLSKVLEGKVGKGFDEFIFDIFKILKQFYVDLLTGRYIIYNDKIYCIVQKPLIYNDHRVNEGDVLVLPMREALPLIIASYLTPYKIDIEEQL
notes: GINS51 of Saccharolobus solfataricus, gene amplified from genomic DNA (ATCC 35092D-5); Two copies stand in the (GINS23)2(GINS51)2 tetramer; A subdomain (alpha-helical) comes first, B subdomain (with beta-strands) second; also called SsoGINS51; Sso51
binding: binds
